Taken from: PubChem BioAssay AID1259301 (Sanger Institute, 2017)
Assay: 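Kinases whose silencing adds to BYL719, cetuximab or trametinib effects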 (secondary rescreen of primary hits using four separate siRNAs per gene). Cells: LS180 human colorectal cancer cells. Reagent: single siRNA against human genes. Challenge: anchor drug BYL719 at 1 µM, cetuximab at 5 µg/ml or trametinib at 10 nM, each against a DMSO vehicle arm. Read-out: 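Replicate mean of viability versus control pool 2 (non-targeting), and for every anchor drug a synergy score assessed against the drug by itself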. Scale: synergy score with BYL719 and synergy score with cetuximab and synergy score with trametinib: higher = stronger synergistic (synthetic lethal) killing. Hit rule: 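a gene is called when its synergy score is above 0.10 for one or more of the three anchor drugs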. Calls: active = synergy with at least one drug; inactive = no synergy with any drug.
Shown is one part, drawn at random, of 160 reagents. Over the whole deposit, 67 (42%) are marked active. 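Calls rest on synergy in any drug arm, not on siRNA-alone viability; rescreen tested four distinct siRNAs for each gene.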 A number with no mark means an inactive call. The numbers tell different reagents against one gene apart. Further read-outs or replicates are left out here. Not given: the amount of reagent, the time to read-out.

gene symbol	reagent no.	synergy score with BYL719	synergy score with cetuximab	synergy score with trametinib
PIK3CA	1	-0.105 (active)	0.0474	0.138
PIK3CA	2	-0.113 (active)	0.146	0.135
PIK3CA	3	-0.194 (active)	-0.0554	0.112
PIK3CA	4	-0.358	-0.0956	0.0718
BRAF	1	-0.138	-0.141	-0.215
BRAF	2	0.0427	-0.0485	-0.075
BRAF	3	-0.15	-0.0838	0.0603
BRAF	4	-0.0708	-0.0936	0.0181
